Data reported in patent publication US12630586 (dated 2026).

How the values were obtained:
[1] = general procedure: hybrid (solid and solution phase) peptide synthesis; 2-chlorotrityl (CTC) resin; DIC/HOBT (solid phase); HATU/HOAT/DIPEA (fragment coupling in solution); settings: late stage modification step, analytical HPLC
[2] = general procedure: hybrid (solid and solution phase) peptide synthesis; 2-CTC resin; DIC/HOBT (solid phase); HATU/HOAT/DIPEA (fragment coupling in solution); settings: whole synthesis, analytical HPLC, scale of the general procedure 750 gm CTC resin (Fragment A), 445 gm CTC resin (Fragment D)

Substance	final purity (method not given) [2]	further results
H-Cys(Acm)-Val-Asn(Trt)-Val-Ala-Cys(Trt)-Thr(tbu)-Gly-Cys(Acm)-Leu-Otbu		crude HPLC purity [1]: ˜ 97%
H-NDECELC(Acm)VNVACTGC(Acm)L-OH (cysteine pairing not given here)		crude purity (method not given) [1]: 73%
Fmoc-Cys(Acm)-Val-Asn(Trt)-Val-Ala-Cys(Trt)-Thr(tbu)-OH	94.29%	
Boc-Asn(Xan)-Asp(Otbu)-Glu(Otbu)-Cys(Trt)-Glu(Otbu)-Leu-OH	90.74%	

*: point of attachment. Acm = CC(=O)NC*
